The values that follow come from paper PMC9609030.

Experiment [1] has as its target T1, UGT1A1 canonical enzyme (human) (UniProt P22309).
T1 sequence: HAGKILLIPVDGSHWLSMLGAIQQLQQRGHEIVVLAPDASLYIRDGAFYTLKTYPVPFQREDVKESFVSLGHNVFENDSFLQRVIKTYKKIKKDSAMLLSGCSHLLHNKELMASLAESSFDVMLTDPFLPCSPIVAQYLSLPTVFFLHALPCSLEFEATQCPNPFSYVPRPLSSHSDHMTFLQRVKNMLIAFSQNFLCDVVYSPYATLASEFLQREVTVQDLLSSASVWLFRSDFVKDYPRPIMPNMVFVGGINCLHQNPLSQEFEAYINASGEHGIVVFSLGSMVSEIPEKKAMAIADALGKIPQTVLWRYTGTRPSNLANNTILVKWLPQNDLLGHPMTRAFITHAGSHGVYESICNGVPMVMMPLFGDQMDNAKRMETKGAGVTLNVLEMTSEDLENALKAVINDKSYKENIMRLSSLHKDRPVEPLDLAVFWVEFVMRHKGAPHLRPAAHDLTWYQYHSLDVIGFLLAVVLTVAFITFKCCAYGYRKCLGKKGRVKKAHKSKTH
Kind of experiment: co-IP; co-IP with anti-myc (UGT1A1) or control IgG antibodies; blots with anti-UGT1A (RC-71) and anti-Flag (OGDHL).

Experiment [2] has as its target T2, UGT1A1 isoform 2 (UGT1A1_i2-V5-His), alternative splicing-derived UGT1A1 protein (human) (UniProt P22309).
T2 sequence: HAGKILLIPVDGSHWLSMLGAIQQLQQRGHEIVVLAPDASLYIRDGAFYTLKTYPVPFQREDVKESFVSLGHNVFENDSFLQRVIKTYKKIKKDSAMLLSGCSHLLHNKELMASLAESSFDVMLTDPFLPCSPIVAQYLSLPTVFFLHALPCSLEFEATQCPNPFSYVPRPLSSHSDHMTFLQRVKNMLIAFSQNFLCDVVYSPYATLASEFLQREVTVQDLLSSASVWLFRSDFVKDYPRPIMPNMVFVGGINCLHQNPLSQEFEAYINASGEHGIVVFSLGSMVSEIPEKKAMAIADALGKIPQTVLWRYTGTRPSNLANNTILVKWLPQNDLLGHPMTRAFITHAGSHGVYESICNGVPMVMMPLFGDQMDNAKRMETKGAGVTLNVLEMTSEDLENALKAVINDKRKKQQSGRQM
Kind of experiment: co-IP; HEK293 cells stably expressing UGT1A1_i2-V5-His and transfected with OGDHL-Myc-DDK; proteins crosslinked with 0.125% paraformaldehyde 10 min 37 °C; lysis in 175 mM Tris-HCl pH 7.4, 150 mM NaCl, 1% Igepal, 1 mM DTT; magnetic beads with goat anti-V5 or control IgG, 2 h 4 °C; blots with anti-V5 and anti-Flag.

No constants are given. Whether binding was seen depends on the method and setting. In cells and extracts the contact can be indirect. Some binding calls cover weakened binding; strength is not graded here. Where a sequence is shown, tags or fusion partners need not be part of it.

B1: oxoglutarate dehydrogenase-like protein (OGDHL-Myc-DDK) (protein, UniProt Q9ULD0 74-1010)
chain: FREASEEAFSGSAQPRPPSVVHESRSAVSSRTKTSKLVEDHLAVQSLIRAYQIRGHHVAQLDPLGILDADLDSFVPSDLITTIDKLAFYDLQEADLDKEFQLPTTTFIGGSENTLSLREIIRRLENTYCQHIGLEFMFINDVEQCQWIRQKFETPGVMQFSSEEKRTLLARLVRSMRFEDFLARKWSSEKRFGLEGCEVMIPALKTIIDKSSEMGIENVILGMPHRGRLNVLANVIRKDLEQIFCQFDPKLEAADEGSGDVKYHLGMYHERINRVTNRNITLSLVANPSHLEAVDPVVQGKTKAEQFYRGDAQGKKVMSILVHGDAAFAGQGVVYETFHLSDLPSYTTNGTVHVVVNNQIGFTTDPRMARSSPYPTDVARVVNAPIFHVNADDPEAVIYVCSVAAEWRNTFNKDVVVDLVCYRRRGHNEMDEPMFTQPLMYKQIHRQVPVLKKYADKLIAEGTVTLQEFEEEIAKYDRICEEAYGRSKDKKILHIKHWLDSPWPGFFNVDGEPKSMTCPATGIPEDMLTHIGSVASSVPLEDFKIHTGLSRILRGRADMTKNRTVDWALAEYMAFGSLLKEGIHVRLSGQDVERGTFSHRHHVLHDQEVDRRTCVPMNHLWPDQAPYTVCNSSLSEYGVLGFELGYAMASPNALVLWEAQFGDFHNTAQCIIDQFISTGQAKWVRHNGIVLLLPHGMEGMGPEHSSARPERFLQMSNDDSDAYPAFTKDFEVSQLYDCNWIVVNCSTPANYFHVLRRQILLPFRKPLIIFTPKSLLRHPEAKSSFDQMVSGTSFQRVIPEDGAAARAPEQVQRLIFCTGKVYYDLVKERSSQDLEEKVAITRLEQISPFPFDLIKQEAEKYPGAELAWCQEEHKNMGYYDYISPRFMTILRRARPIWYVGRDPAAAPATGNRNTHLVSLKKFLDTAFNLQAFEGKTF
Turning to B1, the binding result in experiment [1] is given as “no binding”; in experiment [2], “binds”.
